Results are given in words; binding and its absence hold for the method and conditions named. In cells and extracts the contact can be indirect. Tags and fused reporters may be left off the sequences shown.
B1: Myc-MDM4 (protein, UniProt O15151 1-490)
chain: MTSFSTSAQCSTSDSACRISPGQINQVRPKLPLLKILHAAGAQGEMFTVKEVMHYLGQYIMVKQLYDQQEQHMVYCGGDLLGELLGRQSFSVKDPSPLYDMLRKNLVTLATATTDAAQTLALAQDHSMDIPSQDQLKQSAEESSTSRKRTTEDDIPTLPTSEHKCIHSREDEDLIENLAQDETSRLDLGFEEWDVAGLPWWFLGNLRSNYTPRSNGSTDLQTNQDVGTAIVSDTTDDLWFLNESVSEQLGVGIKVEAADTEQTSEEVGKVSDKKVIEVGKNDDLEDSKSLSDDTDVEVTSEDEWQCTECKKFNSPSKRYCFRCWALRKDWYSDCSKLTHSLSTSDITAIPEKENEGNDVPDCRRTISAPVVRPKDAYIKKENSKLFDPCNSVEFLDLAHSSESQETISSMGEQLDNLSEQRTDTENMEDCQNLLKPCSLCEKRPRDGNIIHGRTGHLVTCFHCARRLKKAGASCPICKKEIQLVIKVFIA

Columns and labels:
[1] = biological target: T1, Myc-MDM4 (UniProt O15151); assay: co-IP; Myc-tagged MDM4 or Flag-tagged GPX4 immunoprecipitated, the other detected by immunoblot (Fig. 6A, B); cell line not stated; lysate supernatant with beads at 4 °C overnight, five washes with lysis buffer
T1 sequence: B1 chain

[2] = biological target: Flag-GPX4; assay: as above

Molecule | binding [1] | binding [2]
Flag-GPX4 | no binding | –
B1 | – | no binding
